# According to the supplement of paper PMC12819154, “High-throughput peptide-centric local stability assay extends protein–ligand identification to membrane proteins, tissues and bacteria” (Nature Structural & Molecular Biology, 2025):
# Chains of the proteins cited; added tags and fusions are not shown. Lines headed by an entry give the natural chain unless they say otherwise; changes in a name come on top.
# UniProt Q9QXK7: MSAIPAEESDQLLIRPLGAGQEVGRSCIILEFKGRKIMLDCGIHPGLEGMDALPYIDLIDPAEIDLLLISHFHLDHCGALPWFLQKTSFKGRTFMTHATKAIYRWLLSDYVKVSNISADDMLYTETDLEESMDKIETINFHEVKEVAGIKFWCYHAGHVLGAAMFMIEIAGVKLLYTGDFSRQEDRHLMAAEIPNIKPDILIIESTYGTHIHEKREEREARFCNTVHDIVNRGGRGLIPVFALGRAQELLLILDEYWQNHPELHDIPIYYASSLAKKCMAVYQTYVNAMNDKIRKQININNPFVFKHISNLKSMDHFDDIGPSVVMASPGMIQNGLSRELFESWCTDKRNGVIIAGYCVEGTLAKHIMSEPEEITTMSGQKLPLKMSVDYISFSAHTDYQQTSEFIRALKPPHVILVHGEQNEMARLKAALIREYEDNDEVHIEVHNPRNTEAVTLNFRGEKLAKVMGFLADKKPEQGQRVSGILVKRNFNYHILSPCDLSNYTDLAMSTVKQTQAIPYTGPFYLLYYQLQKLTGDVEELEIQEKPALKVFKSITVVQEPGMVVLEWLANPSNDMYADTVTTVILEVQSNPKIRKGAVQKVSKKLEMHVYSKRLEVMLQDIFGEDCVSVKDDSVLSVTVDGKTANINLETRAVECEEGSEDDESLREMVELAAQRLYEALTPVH
# UniProt Q9JKV5: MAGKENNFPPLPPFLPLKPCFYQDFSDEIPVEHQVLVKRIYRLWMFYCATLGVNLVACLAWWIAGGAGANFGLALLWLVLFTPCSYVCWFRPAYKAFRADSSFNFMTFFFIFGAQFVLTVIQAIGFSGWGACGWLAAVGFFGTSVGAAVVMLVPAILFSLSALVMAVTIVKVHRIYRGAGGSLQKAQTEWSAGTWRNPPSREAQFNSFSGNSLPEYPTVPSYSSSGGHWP
# UniProt Q9JJG0: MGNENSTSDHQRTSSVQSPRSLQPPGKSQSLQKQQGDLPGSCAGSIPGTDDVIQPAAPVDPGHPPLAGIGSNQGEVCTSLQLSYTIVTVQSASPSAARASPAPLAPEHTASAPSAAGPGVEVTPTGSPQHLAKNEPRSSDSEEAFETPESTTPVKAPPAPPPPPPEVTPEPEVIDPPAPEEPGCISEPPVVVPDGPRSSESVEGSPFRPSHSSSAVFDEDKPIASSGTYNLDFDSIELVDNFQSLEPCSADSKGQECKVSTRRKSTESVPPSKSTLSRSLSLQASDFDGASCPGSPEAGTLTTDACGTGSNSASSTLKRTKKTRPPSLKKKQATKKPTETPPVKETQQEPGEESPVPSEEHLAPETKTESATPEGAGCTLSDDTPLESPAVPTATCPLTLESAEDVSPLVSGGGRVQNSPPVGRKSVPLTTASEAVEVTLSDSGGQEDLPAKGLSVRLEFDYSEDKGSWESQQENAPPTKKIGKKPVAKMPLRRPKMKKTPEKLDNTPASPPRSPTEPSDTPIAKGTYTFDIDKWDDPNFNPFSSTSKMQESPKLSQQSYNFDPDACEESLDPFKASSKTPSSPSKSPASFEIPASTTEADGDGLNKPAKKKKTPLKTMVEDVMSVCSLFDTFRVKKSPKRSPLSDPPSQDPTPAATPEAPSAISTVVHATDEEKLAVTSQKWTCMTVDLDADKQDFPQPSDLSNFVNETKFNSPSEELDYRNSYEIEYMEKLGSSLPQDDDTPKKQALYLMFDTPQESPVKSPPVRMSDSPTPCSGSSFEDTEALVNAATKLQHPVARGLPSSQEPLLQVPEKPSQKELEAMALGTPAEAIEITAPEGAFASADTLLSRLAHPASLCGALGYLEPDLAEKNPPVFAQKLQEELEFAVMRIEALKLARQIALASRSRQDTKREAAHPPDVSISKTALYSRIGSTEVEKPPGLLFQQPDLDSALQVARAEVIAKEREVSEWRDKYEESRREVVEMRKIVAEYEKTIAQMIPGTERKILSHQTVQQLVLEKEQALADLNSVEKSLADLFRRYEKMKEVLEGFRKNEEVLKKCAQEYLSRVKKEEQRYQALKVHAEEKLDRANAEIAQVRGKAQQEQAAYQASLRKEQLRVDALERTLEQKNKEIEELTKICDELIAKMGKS
# UniProt Q9QYA2: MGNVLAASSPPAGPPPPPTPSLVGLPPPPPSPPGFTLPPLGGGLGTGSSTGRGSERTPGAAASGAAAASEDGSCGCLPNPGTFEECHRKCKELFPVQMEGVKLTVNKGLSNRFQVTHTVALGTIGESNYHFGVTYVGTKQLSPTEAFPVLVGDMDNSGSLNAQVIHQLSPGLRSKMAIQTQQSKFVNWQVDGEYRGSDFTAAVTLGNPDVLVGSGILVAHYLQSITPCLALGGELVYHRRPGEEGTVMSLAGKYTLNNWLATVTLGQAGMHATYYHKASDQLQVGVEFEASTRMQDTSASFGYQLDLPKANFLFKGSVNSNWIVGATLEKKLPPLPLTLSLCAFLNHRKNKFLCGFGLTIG
# UniProt Q9JJZ4: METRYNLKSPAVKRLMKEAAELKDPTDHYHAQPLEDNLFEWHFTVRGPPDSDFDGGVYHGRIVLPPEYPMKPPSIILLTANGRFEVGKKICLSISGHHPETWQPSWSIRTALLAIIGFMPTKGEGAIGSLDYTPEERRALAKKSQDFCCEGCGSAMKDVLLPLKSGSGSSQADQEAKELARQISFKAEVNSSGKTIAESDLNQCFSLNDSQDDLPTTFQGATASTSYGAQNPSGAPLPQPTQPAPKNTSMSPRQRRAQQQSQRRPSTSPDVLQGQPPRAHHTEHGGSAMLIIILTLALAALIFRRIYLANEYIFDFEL
# UniProt Q9EQI8: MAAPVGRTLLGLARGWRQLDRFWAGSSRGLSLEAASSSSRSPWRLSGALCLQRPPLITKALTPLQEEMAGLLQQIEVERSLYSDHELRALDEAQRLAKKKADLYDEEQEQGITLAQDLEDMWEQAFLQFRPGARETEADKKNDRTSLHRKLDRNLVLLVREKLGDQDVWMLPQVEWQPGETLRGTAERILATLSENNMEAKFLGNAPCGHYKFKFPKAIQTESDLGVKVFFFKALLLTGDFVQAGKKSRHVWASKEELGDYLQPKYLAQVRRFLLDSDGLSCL
# UniProt Q9DCM0: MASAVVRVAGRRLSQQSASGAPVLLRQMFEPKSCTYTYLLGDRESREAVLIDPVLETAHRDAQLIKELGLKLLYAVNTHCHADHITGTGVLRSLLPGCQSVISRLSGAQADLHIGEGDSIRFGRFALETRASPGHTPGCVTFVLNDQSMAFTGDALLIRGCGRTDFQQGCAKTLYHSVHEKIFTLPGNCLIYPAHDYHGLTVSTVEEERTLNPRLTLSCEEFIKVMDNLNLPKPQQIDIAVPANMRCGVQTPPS
# UniProt Q9ESW4: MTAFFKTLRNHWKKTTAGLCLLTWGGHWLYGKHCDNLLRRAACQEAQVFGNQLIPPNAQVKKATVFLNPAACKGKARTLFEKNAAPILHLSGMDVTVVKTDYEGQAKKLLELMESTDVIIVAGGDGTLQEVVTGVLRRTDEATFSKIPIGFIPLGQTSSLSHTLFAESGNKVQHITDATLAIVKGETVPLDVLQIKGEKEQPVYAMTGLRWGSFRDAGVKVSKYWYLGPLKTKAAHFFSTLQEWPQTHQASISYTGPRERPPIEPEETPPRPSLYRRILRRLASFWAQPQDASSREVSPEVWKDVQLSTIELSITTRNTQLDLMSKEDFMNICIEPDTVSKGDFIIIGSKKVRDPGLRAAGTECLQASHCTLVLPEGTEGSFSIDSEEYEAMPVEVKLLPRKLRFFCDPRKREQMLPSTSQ
# UniProt Q9ER72: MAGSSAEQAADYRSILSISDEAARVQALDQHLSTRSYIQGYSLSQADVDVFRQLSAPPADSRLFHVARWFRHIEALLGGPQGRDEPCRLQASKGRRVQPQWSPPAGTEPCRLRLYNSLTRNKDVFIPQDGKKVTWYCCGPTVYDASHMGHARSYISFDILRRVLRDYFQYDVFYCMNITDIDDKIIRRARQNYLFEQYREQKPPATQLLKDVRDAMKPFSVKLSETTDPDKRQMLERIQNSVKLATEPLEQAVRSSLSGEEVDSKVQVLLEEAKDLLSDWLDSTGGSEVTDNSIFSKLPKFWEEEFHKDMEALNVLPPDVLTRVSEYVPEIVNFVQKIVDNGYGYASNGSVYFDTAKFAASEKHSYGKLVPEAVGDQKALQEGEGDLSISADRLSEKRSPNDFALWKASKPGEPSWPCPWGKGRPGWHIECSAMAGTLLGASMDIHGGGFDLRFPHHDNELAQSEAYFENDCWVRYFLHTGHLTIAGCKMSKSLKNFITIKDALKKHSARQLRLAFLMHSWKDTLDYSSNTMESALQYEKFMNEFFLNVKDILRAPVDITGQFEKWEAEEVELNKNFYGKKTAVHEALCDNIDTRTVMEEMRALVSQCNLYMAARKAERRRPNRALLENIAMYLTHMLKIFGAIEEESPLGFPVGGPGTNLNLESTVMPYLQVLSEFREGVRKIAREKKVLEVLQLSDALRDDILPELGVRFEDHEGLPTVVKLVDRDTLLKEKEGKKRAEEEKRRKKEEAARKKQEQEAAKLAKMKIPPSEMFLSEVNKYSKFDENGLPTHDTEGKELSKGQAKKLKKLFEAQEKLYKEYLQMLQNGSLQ
# UniProt Q9JKL4: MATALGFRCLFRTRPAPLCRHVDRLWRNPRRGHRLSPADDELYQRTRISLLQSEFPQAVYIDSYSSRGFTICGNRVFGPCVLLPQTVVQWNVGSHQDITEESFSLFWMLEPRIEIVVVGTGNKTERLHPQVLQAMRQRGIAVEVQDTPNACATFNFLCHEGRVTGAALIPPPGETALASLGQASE
# UniProt Q9EQU5, whole entry: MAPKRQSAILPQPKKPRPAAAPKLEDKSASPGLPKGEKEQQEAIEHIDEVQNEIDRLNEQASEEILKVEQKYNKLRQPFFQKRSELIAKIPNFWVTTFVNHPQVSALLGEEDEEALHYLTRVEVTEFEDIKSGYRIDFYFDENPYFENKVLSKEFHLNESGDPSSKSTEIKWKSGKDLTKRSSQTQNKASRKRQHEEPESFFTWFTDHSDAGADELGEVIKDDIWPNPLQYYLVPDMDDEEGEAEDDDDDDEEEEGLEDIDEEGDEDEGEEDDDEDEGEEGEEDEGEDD
# UniProt Q9JLM9, whole entry: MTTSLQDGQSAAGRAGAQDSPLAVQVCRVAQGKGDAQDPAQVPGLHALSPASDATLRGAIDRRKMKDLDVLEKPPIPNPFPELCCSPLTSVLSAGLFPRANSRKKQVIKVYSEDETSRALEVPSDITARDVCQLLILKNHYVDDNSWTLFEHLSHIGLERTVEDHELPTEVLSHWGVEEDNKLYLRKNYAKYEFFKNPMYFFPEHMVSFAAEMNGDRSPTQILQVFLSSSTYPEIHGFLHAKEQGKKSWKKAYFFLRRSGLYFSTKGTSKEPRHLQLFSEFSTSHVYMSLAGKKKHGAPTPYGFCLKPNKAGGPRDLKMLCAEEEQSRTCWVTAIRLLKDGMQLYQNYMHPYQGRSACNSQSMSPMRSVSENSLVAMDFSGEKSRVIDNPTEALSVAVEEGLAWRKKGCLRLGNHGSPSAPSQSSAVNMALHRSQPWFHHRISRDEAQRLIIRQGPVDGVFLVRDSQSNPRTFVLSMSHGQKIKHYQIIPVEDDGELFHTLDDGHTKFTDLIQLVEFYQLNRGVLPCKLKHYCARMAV
# UniProt Q9JL35: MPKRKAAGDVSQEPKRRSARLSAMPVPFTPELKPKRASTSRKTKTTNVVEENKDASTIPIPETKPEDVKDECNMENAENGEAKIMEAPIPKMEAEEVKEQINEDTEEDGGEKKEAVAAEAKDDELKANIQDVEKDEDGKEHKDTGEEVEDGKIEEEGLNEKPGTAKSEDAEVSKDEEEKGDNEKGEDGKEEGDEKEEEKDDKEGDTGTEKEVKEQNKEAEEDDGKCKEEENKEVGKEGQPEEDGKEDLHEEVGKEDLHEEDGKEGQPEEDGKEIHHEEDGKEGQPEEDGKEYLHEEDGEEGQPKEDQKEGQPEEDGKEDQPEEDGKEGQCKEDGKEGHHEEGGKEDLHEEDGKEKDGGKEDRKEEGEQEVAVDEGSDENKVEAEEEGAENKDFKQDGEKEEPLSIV
# UniProt Q9QX60: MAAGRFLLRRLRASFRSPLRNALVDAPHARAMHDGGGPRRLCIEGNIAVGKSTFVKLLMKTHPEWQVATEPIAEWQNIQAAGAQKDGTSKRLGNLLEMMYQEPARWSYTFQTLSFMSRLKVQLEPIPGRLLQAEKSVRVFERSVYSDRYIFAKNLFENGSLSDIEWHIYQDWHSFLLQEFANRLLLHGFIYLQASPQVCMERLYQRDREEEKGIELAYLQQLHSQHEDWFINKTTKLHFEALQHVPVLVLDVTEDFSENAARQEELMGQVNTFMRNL
# UniProt Q9DCG2: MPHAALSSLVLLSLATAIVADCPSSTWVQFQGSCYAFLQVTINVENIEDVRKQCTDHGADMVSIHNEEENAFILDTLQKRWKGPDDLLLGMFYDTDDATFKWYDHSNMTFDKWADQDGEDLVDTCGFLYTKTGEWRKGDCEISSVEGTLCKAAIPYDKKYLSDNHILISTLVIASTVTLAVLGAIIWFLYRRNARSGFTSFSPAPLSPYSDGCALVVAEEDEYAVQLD
# The list shows a part of the results. Most entries show no effect beyond the scatter of the controls.
# Compound: CN[C@@H]1C[C@H]2O[C@@](C)([C@@H]1OC)n1c3ccccc3c3c4c(c5c6ccccc6n2c5c31)C(=O)NC4 [staurosporine]
# Experiment: log2 fold change of pooled soluble protein (PISA), ligand vs vehicle (log2 ratio); higher = more thermally stabilized
# Conditions: ligand concentration: 20 uM; assay format: PISA pool 52.9/55.5/58.6 C
row,Target,log2 fold change of pooled soluble protein
1,UniProt Q9QXK7,-0.931
2,UniProt Q9JMG1,-0.0757
3,UniProt Q9JHE7,-0.0816
4,UniProt Q9EPT5,0.00447
5,UniProt Q9ET01,0.0804
6,UniProt Q9ERK4,-0.132
7,UniProt Q9JJT9,-0.0809
8,UniProt Q9JKV5,0.661
9,UniProt Q9ERR7,0.0551
10,UniProt Q9DCY0,-0.147
11,UniProt Q9EQF5,-0.0764
12,UniProt Q9JJG0,-0.156
13,UniProt Q9JI99,-0.152
14,UniProt Q9JIW9,-0.232
15,UniProt Q9JHW2,-0.0344
16,UniProt Q9JM99,0.188
17,UniProt Q9QYA2,-0.00105
18,UniProt Q9QUM9,-0.0292

# Rewritten bar-delimited: entries from further up
row | Target | log2 fold change of pooled soluble protein
2 | UniProt Q9JMG1 | -0.0757
3 | UniProt Q9JHE7 | -0.0816

# (cont.)

row,Target,log2 fold change of pooled soluble protein
1,UniProt Q9JJZ4,0.0384
2,UniProt Q9EQI8,0.136
3,UniProt Q9JIG8,0.0451
4,UniProt Q9DCM0,-0.0335
5,UniProt Q9ESW4,-0.0732
6,UniProt Q9JKB1,0.105
7,UniProt Q9ER72,0.039
8,UniProt Q9JKL4,-0.0664
9,UniProt Q9JKC8,0.381
10,UniProt Q9EQU5,-0.017
11,UniProt Q9JLM9,-0.165
12,UniProt Q9JLJ5,-0.225
13,UniProt Q9JL35,0.106
14,UniProt Q9QX60,0.0313
15,UniProt Q9DCJ5,-0.157
16,UniProt Q9JMA7,0.343
17,UniProt Q9DCG2,0.275
18,UniProt Q9JM52,-0.0322
